Some of these results come from one statement about several compounds together.
Test system: ketone bodies (3-hydroxybutyrate, acetoacetate)
Experiment: ACC inhibitor to elevate ketone levels in a rat model (blood plasma and urine)
Type: in vivo, Sprague-Dawley rats
Conditions: rats, diet containing 1-50 mg/kg/day, GC-MS

Row | SMILES | concentration of 3-hydroxybutyrate in the urine [mM]
1 | CCN(CC)C(=O)[C@@H]1CCCN(C2CCN(C(=O)c3c4ccccc4cc4ccccc34)CC2)C1 [CP-610431, R-1′-(anthracene-9-carbonyl)-N,N-diethyl-1,4′-bipiperidine-3-carboxamide] | 1 to 10
2 | CCCCCCCCCCCCCCOc1ccc(C(=O)O)o1 [AC-8632, 5-(tetradecyloxy)-2-furan-carboxylic acid] | 1 to 10

— patent US20110003767A1, “Inhibitors of Acetyl-CoA Carboxylase for Treatment of Neuronal Hypometabolism” (NEUERA PHARMACEUTICALS, INC., priority 2007, published 2011)
